Paper doi:10.1101/2025.01.15.633117
Read-outs that look alike come from different tables or passages of the source. These are yes or no findings as the source states them, for the method shown. Binding seen in cells or lysates may run through a third protein. These calls come from enrichment with a bait or labelling near it, and not all partners need be listed. For some assays here: Sequences can lack the tags named with a protein. Values belong to the molecule of their own block, whether it stands above or below them.

Chains of the proteins cited; added tags and fusions are not shown. Residues count along the entry.
UniProt P29317, residues 24-976: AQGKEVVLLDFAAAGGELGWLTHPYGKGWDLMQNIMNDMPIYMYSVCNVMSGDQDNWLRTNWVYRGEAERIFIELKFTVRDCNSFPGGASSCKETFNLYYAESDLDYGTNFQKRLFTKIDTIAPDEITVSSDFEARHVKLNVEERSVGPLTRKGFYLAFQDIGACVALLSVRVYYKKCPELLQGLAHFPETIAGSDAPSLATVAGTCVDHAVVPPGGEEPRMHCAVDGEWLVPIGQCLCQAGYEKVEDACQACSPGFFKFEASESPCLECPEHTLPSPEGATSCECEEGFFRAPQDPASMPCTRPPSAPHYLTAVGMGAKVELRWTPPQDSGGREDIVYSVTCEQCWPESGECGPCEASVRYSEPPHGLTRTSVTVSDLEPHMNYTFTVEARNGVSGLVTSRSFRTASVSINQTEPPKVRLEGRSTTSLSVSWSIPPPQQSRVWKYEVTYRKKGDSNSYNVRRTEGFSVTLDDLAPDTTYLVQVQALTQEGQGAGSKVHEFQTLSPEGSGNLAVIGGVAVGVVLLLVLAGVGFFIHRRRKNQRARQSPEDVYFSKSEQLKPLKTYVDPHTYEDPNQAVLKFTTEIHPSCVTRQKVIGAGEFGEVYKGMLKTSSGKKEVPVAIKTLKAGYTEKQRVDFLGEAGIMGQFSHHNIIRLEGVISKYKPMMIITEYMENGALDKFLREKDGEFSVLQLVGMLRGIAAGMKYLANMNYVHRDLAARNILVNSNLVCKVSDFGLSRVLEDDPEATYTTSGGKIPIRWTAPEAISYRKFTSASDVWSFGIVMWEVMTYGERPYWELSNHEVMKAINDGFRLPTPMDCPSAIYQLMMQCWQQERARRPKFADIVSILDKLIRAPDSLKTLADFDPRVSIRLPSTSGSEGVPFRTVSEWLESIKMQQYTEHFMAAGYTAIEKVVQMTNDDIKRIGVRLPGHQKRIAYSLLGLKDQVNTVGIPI
UniProt Q8TEW0: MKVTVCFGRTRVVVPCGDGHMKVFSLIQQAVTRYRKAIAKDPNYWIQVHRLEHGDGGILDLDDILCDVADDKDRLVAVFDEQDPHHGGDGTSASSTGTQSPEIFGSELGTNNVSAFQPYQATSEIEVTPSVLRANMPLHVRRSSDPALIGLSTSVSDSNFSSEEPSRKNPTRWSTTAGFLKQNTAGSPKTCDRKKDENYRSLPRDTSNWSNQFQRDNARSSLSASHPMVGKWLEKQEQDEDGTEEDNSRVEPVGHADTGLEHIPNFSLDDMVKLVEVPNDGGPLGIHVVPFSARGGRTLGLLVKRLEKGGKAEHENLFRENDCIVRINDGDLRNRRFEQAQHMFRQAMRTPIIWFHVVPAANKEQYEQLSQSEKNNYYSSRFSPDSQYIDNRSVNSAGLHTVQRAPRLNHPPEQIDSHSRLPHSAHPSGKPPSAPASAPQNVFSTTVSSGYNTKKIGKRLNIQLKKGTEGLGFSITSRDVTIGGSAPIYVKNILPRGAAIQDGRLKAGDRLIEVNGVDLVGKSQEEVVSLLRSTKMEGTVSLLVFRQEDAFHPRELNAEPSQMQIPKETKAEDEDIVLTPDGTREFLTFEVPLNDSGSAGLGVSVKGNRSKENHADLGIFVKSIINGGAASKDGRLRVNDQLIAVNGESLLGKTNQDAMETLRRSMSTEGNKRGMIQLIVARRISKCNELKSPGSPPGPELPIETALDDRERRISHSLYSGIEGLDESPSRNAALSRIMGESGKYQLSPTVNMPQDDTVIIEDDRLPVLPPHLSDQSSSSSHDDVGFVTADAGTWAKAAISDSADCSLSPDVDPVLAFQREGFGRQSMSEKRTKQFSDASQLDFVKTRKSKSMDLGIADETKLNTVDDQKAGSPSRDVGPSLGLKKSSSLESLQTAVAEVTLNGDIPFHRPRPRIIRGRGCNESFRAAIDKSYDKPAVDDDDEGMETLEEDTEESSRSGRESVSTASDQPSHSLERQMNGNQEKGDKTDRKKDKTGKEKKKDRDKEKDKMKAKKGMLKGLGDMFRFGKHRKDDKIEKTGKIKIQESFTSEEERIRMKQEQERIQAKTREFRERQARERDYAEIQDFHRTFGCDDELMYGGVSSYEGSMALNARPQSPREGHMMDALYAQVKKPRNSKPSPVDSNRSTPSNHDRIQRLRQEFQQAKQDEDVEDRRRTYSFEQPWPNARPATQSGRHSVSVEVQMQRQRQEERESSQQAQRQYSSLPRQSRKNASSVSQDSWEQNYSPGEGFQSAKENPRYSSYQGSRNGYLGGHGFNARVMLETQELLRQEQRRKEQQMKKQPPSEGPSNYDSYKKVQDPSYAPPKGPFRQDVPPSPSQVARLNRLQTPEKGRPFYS
UniProt Q14160: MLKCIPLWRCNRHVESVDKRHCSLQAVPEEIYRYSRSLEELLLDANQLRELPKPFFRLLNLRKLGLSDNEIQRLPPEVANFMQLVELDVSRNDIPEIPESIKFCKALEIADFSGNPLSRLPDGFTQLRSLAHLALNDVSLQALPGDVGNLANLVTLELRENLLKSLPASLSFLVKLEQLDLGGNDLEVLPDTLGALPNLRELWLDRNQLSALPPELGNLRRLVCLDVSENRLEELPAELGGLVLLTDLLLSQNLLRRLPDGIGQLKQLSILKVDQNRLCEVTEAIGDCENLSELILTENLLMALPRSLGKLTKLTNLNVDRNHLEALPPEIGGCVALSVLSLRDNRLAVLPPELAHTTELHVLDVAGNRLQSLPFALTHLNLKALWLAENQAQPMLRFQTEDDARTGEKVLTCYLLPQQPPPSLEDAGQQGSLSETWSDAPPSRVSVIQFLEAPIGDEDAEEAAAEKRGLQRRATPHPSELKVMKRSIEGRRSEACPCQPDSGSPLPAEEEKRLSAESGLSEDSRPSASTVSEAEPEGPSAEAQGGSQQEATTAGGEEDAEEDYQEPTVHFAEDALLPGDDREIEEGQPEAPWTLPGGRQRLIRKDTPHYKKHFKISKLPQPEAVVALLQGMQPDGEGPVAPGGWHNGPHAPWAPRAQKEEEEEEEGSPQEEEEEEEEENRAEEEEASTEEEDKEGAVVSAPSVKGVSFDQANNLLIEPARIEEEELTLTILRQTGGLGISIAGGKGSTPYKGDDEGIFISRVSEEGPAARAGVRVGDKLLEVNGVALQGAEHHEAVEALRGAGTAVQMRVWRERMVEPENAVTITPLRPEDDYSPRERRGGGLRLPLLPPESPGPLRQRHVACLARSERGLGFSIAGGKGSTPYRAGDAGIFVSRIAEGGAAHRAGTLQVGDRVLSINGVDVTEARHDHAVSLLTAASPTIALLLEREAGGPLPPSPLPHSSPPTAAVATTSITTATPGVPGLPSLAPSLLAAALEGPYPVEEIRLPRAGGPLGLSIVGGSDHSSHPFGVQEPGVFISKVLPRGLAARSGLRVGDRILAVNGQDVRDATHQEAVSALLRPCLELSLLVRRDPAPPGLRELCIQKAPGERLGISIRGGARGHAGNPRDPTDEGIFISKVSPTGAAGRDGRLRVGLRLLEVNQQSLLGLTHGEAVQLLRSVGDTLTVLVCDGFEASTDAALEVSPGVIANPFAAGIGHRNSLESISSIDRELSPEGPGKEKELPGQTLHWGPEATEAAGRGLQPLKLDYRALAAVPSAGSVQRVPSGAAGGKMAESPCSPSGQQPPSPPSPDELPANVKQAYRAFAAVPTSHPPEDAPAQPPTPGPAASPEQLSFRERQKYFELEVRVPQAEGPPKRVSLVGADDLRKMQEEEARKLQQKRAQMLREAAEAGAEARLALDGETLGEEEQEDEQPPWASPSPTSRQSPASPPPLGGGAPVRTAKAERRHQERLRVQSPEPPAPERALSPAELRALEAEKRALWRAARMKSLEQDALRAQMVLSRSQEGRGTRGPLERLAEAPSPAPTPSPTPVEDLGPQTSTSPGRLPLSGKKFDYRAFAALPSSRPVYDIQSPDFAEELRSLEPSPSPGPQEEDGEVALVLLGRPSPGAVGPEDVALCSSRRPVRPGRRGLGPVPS
UniProt Q9HAU4: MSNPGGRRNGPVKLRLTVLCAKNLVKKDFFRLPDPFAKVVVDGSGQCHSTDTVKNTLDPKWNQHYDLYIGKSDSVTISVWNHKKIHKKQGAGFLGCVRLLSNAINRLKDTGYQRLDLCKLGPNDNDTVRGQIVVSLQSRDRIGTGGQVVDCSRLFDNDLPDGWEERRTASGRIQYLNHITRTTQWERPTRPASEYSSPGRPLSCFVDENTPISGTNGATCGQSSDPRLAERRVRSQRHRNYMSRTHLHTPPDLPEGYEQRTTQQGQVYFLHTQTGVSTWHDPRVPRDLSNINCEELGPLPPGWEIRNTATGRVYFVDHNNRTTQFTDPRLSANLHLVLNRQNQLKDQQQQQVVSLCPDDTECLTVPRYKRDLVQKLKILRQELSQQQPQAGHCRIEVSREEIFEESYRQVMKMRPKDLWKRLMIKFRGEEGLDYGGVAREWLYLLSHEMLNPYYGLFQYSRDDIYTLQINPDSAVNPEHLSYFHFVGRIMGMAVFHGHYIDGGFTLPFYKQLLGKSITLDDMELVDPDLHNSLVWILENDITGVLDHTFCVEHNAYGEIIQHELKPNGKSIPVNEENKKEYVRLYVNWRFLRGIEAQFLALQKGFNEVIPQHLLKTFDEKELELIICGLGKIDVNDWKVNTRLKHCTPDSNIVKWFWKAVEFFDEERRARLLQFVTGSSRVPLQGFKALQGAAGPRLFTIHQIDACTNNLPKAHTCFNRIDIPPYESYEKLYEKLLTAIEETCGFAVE
UniProt Q9C0D5: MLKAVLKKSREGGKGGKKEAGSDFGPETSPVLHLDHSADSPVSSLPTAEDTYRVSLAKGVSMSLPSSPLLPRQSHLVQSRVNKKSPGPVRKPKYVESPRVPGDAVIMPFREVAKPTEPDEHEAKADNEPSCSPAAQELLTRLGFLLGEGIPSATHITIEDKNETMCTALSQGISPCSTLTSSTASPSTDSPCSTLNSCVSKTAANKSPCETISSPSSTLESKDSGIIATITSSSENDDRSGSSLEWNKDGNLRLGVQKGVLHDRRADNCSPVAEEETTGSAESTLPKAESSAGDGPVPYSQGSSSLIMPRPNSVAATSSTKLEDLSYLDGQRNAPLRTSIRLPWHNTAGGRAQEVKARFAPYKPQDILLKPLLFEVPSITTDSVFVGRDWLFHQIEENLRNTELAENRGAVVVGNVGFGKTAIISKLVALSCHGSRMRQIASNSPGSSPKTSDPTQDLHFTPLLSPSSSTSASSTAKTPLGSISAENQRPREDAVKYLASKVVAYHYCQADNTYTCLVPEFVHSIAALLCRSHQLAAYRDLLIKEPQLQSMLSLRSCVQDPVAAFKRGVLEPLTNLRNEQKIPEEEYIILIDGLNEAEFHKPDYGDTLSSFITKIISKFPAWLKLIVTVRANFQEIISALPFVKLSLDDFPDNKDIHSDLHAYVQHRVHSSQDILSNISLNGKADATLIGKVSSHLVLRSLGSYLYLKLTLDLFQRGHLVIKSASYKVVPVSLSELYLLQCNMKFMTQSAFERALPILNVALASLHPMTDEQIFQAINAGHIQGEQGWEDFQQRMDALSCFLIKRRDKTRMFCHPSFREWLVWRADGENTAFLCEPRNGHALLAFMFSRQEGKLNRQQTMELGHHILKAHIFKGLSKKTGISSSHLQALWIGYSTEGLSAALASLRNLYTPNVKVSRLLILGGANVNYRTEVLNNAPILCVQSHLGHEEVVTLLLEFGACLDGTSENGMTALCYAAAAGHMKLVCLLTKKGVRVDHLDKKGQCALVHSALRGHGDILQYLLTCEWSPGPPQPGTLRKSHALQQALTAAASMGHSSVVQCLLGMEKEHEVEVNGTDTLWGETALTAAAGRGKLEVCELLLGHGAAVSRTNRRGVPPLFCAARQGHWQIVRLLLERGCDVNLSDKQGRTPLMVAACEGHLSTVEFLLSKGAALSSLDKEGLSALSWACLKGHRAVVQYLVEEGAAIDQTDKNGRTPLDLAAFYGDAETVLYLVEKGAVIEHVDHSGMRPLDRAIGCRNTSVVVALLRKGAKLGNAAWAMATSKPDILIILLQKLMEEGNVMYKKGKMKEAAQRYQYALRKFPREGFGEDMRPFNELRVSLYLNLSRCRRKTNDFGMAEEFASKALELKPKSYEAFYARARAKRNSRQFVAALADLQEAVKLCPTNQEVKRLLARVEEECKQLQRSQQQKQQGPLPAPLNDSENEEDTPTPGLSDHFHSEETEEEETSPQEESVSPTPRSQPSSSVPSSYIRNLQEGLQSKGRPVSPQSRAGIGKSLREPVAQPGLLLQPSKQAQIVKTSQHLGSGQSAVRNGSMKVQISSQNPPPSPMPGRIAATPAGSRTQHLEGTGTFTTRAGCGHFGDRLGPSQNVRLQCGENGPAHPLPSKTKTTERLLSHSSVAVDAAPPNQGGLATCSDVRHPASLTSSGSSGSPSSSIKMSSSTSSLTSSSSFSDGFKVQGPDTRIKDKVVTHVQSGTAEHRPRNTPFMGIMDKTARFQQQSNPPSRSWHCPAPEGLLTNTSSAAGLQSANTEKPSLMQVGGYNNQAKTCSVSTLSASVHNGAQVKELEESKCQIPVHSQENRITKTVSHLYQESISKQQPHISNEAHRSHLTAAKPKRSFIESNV

Legend:
Test in all cases: proximity labelling
[1] = target: T1, MYC-BirA*-PRICKLE1 (human) (UniProt Q96MT3)
T1 sequence: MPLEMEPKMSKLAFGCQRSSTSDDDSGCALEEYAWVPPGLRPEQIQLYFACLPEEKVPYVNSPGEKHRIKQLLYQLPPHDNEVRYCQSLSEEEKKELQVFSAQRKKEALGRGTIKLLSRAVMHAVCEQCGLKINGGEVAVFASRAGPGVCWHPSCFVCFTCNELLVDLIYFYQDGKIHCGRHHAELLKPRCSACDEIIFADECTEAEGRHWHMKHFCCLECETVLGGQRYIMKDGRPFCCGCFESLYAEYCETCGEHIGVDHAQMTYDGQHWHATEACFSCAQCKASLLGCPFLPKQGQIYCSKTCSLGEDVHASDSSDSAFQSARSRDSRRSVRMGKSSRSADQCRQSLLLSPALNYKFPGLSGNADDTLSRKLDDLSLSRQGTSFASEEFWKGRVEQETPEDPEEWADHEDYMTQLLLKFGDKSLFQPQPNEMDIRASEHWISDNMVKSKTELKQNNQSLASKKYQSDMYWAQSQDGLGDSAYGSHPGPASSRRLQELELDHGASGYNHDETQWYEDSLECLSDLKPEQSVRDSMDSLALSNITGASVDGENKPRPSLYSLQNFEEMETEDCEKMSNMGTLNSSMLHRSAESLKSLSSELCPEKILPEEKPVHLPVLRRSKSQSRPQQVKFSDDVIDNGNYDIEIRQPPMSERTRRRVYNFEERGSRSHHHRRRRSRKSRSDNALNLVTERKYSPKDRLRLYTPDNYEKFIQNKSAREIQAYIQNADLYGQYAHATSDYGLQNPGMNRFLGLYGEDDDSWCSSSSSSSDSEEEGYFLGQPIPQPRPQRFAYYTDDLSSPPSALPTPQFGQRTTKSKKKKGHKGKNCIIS

ROR1-BirA*-HA (human) [2] = target: ROR1-BirA*-HA (human) (UniProt Q01973)
ROR2-BirA*-HA (human) [3] = target: ROR2-BirA*-HA (human) (UniProt Q01974)
[4] = target: T2, PHACTR4-V5-miniTurboID (human) (UniProt Q8IZ21)
T2 sequence: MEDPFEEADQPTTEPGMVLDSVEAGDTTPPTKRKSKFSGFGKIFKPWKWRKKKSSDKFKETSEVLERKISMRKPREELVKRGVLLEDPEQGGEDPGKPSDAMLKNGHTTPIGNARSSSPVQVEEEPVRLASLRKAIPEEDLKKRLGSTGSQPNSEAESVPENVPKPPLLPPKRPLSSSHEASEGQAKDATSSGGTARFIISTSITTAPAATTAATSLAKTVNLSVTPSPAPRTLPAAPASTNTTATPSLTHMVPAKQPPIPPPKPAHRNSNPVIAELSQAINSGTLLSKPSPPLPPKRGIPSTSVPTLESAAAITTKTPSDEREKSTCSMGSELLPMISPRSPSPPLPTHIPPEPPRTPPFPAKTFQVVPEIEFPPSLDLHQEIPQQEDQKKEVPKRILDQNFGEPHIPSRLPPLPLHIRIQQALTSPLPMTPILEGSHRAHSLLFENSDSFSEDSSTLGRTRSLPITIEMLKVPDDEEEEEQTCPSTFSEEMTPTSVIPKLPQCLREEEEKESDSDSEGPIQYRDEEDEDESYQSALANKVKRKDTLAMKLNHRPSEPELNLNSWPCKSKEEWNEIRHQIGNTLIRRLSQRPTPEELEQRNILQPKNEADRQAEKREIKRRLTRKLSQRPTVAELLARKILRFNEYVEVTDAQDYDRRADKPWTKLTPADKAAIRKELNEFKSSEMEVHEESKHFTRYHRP

[5] = target: EPHA2-V5-miniTurboID (human) (UniProt P29317)
[6] = target: T3, RAI14-V5-miniTurboID (human) (UniProt Q9P0K7)
T3 sequence: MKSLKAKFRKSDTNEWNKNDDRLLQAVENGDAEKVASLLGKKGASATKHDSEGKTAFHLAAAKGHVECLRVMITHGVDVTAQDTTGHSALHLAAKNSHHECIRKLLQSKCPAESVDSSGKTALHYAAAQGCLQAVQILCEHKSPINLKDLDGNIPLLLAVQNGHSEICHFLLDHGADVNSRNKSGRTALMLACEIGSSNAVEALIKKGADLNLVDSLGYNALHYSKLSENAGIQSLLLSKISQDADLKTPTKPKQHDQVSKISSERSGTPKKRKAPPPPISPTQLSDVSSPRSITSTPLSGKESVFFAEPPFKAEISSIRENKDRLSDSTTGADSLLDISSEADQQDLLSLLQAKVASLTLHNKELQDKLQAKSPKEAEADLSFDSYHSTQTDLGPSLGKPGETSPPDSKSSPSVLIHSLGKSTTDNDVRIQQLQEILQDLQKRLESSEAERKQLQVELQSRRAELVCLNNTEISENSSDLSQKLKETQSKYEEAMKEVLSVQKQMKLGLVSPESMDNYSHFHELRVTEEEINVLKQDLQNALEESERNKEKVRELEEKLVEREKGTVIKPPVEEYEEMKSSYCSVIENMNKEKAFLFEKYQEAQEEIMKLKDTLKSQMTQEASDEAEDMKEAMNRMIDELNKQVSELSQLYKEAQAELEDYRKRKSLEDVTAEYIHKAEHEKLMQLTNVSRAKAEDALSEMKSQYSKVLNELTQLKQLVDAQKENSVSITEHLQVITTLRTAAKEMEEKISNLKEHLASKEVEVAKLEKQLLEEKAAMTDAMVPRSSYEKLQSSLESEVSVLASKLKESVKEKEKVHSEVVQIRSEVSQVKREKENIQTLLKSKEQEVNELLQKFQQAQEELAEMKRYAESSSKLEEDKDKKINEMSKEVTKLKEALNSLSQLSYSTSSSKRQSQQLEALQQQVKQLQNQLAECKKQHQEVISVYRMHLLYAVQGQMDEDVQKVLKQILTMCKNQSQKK

[7] = target: T1, MYC-BirA*-PRICKLE1 (human); remark: listed apart in the source
ROR1-BirA*-HA (human) [8] = target: ROR1-BirA*-HA (human) (UniProt Q01973); remark: listed apart in the source
ROR2-BirA*-HA (human) [9] = target: ROR2-BirA*-HA (human) (UniProt Q01974); remark: listed apart in the source

binding [1]: binds | binding (ROR1-BirA*-HA (human) [2]): binds | binding (ROR2-BirA*-HA (human) [3]): binds
Molecule: AHNAK2 (from UniProt Q8IVF2 1-5795)

binding [4]: binds
Molecule: CELSR1 (from UniProt Q9NYQ6 21-3014) (receptor)

binding [4]: binds
Molecule: CELSR2 (from UniProt Q9HCU4 32-2923) (receptor)

binding [1]: binds | binding (ROR1-BirA*-HA (human) [2]): binds | binding (ROR2-BirA*-HA (human) [3]): binds
Molecule: EPHA2 (endogenous) (from UniProt P29317 24-976) (receptor)

binding [1]: binds | binding (ROR1-BirA*-HA (human) [2]): binds | binding (ROR2-BirA*-HA (human) [3]): binds
Molecule: PARD3 (from UniProt Q8TEW0 1-1356)

binding [5]: binds | binding [6]: binds
Molecule: ROR1 (endogenous) (from UniProt Q01973 30-937) (receptor)

binding [1]: binds | binding (ROR1-BirA*-HA (human) [2]): binds | binding (ROR2-BirA*-HA (human) [3]): binds
Molecule: SCRIB (from UniProt Q14160 1-1655)

binding [4]: binds
Molecule: SMURF2 (from UniProt Q9HAU4 1-748) (enzyme)

binding [1]: binds | binding (ROR1-BirA*-HA (human) [2]): binds | binding (ROR2-BirA*-HA (human) [3]): binds
Molecule: TANC1 (from UniProt Q9C0D5 1-1861)

binding [7]: binds | binding (ROR1-BirA*-HA (human) [8]): binds | binding (ROR2-BirA*-HA (human) [9]): binds
B1: RAI14 (endogenous) (protein, UniProt Q9P0K7 1-980)
chain: T3 sequence

binding [7]: binds | binding (ROR1-BirA*-HA (human) [8]): binds | binding (ROR2-BirA*-HA (human) [9]): binds
B2: PHACTR4 (endogenous) (protein, UniProt Q8IZ21 1-702)
chain: T2 sequence
